Assay results published in PubChem BioAssay AID236 (DTP/NCI, 2004).
The list does not hold the whole screen: it covers a few groups of compounds. Other doses and runs of a compound may be missing. T/C gives the treated animals as a percentage of the vehicle group. Some entries give survivors of the animals treated and no T/C: the source holds a T/C of zero for them, seemingly a mark for toxic or unscored doses. Some survivor counts are full or nearly so, which does not show that the dose was tolerated: the source hardly ever lists a survival T/C far under the control, and the zero likely stands for such cases as well. Counts of survivors are from the toxicity check (mostly the fifth day) where no day follows; animals may have died later. Schedule codes are those of the source, read here as Q, the interval in days (D) or hours (H), X, the number of doses. For survival time, the PubChem record calls one and a half times the control and up active, and a quarter to a half above the control has no call in these data; cut-offs in other NCI protocols can differ. Some entries hold several experiments; the values are given in rising order.

Tested on: AK4 lymphoid leukemia ip, C3AKF1 mice, survival
Experiment: NCI In Vivo Anticancer Drug Screen. Data for tumor model AK4 Lymphoid Leukemia (intraperitoneal) in C3AKF1 (CHKRF1) mice
Conditions: T/C endpoint: median survival time, schedule: Q01DX010 (ip), vehicle: saline, higher T/C = longer survival
Protocol: The antitumor activity of compounds was measured in mice bearing transplantable tumors. Survival or tumor size were measured and the results are expressed as the measurement made in the treated group (T) divided by the measurement made in the vehicle treated control group (C). The tumor model used in this assay is AK4 Lymphoid Leukemia (intraperitoneal) in C3AKF1 (CHKRF1) mice

Structure (SMILES)	T/C (dose: 1.25 mg/kg/injection)	T/C (dose: 2.5 mg/kg/injection)	T/C (dose: 5.0 mg/kg/injection)	T/C (dose: 10.0 mg/kg/injection)	T/C (dose: 20.0 mg/kg/injection)	T/C (dose: 0.5 mg/kg/injection)	T/C (dose: 1.0 mg/kg/injection)	T/C (dose: 2.0 mg/kg/injection)	T/C (dose: 4.0 mg/kg/injection)	survivor count (dose: 8.0 mg/kg/injection)
NC1CCCCC1.O=P(O)(N(CCCl)CCCl)N1CC1	105 % of control	105 and 138 % of control	120 and 144 % of control	120 and 155 % of control	100 % of control					
Cc1[nH]c(=O)[nH]c(=O)c1N(CCCl)CCCl						116 % of control	111 and 122 % of control	116 and 144 % of control	111 and 116 % of control	6 of 6
